According to paper PMC8568969:
These are yes or no findings as the source states them, for the method shown. In cells and extracts the contact can be indirect. These calls come from enrichment with a bait or labelling near it, and not all partners need be listed.

Protein sequences, listed by entry. Tags and fused reporters are not part of them. Lines headed by an entry give the natural chain unless they say otherwise; changes in a name come on top. Chains listed by the source or under a name are the forms on record and can include a tag or linker.
UniProt Q9BUA3: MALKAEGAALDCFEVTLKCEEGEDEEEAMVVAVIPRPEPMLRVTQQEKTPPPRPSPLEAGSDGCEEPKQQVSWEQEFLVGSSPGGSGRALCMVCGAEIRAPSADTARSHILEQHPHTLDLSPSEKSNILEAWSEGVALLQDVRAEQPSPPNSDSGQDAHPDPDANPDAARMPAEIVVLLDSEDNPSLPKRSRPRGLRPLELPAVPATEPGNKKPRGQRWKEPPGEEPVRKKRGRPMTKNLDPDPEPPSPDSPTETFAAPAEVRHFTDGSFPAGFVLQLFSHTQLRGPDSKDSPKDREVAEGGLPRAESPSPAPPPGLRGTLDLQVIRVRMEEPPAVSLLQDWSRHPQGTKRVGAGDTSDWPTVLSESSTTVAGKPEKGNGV
GFP-SPINDOCΔ251–293aa (Q9BUA3, form named): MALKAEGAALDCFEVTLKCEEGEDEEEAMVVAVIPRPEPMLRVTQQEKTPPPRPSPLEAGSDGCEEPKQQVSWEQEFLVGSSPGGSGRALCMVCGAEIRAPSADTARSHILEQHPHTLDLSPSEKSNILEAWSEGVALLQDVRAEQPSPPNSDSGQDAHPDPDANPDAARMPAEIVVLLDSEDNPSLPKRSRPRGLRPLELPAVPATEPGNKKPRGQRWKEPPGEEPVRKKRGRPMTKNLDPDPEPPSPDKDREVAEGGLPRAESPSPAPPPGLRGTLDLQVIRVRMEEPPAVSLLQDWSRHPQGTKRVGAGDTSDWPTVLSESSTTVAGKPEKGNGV
UniProt P09874: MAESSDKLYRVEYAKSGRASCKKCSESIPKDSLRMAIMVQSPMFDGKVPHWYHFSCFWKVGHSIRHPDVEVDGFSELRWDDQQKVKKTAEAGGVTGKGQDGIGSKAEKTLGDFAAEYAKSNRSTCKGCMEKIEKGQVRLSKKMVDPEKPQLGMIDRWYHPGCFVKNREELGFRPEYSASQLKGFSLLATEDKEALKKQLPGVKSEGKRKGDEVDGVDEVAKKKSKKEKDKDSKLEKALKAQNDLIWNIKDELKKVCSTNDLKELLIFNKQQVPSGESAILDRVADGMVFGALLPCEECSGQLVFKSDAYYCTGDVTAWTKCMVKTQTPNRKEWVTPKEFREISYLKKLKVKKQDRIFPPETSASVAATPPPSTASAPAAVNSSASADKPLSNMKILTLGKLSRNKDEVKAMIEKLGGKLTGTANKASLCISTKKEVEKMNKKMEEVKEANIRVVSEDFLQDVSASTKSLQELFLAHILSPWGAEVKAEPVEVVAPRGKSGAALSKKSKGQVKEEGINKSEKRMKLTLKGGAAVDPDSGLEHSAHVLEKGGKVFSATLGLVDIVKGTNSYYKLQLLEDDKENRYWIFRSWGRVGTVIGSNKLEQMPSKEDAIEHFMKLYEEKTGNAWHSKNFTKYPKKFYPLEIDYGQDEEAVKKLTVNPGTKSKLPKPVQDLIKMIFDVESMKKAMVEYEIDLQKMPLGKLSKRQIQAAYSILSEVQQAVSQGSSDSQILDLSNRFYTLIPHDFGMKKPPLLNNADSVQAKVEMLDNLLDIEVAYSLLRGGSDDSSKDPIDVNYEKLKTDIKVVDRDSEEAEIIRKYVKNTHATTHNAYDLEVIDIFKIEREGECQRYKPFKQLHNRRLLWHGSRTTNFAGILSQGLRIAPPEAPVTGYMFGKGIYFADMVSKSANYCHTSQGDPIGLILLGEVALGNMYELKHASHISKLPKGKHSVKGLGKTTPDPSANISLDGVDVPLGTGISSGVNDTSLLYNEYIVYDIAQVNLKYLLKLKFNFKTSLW

Legend:
GFP-SPINDOC = GFP-SPINDOC (UniProt Q9BUA3); assay: affinity purification with mass spectrometry; anti-GFP IP from cytoplasmic and nuclear fractions of HEK293T cells transfected with GFP-SPINDOC or GFP-SPINDOC del251–293aa (pEGFP-C1 as control), SDS-PAGE, in-gel trypsin digestion, LC-MS/MS
GFP-SPINDOCΔ251–293aa = GFP-SPINDOCΔ251–293aa (UniProt Q9BUA3); assay: as above

## PARP1 (endogenous) (from UniProt P09874 1-1014)
GFP-SPINDOC
  binding: binds
GFP-SPINDOCΔ251–293aa
  binding: binds
